# From the supplement of paper PMC10849652
# Sequences of proteins named here, by UniProt entry; tags and fusion partners are left off. A change or cut given only in a name is not applied to a line headed by its entry.
# UniProt Q9UNS2: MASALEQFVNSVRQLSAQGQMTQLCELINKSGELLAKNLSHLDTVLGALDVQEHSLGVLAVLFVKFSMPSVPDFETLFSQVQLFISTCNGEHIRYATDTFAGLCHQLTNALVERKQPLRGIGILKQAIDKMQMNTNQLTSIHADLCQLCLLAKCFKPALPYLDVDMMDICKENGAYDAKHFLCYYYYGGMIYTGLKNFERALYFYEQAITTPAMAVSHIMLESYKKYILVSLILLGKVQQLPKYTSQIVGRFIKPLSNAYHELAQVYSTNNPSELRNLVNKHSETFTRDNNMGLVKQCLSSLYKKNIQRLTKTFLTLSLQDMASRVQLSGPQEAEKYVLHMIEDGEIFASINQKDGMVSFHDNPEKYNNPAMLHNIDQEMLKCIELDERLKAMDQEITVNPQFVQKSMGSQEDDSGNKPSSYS
# UniProt O75175, whole entry, looked up: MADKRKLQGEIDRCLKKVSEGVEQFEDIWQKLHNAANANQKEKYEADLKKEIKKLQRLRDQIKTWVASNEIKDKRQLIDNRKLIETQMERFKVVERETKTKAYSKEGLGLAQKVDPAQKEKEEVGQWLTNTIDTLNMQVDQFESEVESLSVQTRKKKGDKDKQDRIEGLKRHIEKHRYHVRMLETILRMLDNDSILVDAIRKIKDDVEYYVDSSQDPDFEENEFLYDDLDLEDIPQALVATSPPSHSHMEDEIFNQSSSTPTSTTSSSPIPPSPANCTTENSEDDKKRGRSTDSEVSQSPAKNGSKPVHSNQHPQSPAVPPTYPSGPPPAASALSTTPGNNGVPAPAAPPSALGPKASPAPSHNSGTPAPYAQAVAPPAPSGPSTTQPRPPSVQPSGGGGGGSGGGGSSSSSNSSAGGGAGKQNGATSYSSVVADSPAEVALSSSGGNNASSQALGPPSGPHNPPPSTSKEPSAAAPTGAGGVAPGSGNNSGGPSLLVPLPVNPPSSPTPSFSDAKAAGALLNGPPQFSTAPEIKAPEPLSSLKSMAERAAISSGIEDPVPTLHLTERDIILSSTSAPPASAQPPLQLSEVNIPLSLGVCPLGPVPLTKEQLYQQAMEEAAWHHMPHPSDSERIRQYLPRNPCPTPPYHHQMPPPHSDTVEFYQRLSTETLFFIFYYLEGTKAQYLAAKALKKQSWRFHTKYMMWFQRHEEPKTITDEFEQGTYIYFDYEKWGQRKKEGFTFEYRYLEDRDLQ
# UniProt Q9NQ92: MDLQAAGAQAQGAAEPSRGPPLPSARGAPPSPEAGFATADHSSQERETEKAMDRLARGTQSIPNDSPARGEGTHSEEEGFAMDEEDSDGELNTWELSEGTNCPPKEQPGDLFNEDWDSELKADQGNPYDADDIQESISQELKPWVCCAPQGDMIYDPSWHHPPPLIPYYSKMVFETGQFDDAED
# UniProt P78560: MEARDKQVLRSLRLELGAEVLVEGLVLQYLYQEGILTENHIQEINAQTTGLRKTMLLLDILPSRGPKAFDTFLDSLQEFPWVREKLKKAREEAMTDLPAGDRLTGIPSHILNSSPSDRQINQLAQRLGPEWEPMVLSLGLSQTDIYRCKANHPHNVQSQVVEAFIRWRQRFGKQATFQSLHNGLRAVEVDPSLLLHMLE
# UniProt A5YKK6, whole entry, looked up: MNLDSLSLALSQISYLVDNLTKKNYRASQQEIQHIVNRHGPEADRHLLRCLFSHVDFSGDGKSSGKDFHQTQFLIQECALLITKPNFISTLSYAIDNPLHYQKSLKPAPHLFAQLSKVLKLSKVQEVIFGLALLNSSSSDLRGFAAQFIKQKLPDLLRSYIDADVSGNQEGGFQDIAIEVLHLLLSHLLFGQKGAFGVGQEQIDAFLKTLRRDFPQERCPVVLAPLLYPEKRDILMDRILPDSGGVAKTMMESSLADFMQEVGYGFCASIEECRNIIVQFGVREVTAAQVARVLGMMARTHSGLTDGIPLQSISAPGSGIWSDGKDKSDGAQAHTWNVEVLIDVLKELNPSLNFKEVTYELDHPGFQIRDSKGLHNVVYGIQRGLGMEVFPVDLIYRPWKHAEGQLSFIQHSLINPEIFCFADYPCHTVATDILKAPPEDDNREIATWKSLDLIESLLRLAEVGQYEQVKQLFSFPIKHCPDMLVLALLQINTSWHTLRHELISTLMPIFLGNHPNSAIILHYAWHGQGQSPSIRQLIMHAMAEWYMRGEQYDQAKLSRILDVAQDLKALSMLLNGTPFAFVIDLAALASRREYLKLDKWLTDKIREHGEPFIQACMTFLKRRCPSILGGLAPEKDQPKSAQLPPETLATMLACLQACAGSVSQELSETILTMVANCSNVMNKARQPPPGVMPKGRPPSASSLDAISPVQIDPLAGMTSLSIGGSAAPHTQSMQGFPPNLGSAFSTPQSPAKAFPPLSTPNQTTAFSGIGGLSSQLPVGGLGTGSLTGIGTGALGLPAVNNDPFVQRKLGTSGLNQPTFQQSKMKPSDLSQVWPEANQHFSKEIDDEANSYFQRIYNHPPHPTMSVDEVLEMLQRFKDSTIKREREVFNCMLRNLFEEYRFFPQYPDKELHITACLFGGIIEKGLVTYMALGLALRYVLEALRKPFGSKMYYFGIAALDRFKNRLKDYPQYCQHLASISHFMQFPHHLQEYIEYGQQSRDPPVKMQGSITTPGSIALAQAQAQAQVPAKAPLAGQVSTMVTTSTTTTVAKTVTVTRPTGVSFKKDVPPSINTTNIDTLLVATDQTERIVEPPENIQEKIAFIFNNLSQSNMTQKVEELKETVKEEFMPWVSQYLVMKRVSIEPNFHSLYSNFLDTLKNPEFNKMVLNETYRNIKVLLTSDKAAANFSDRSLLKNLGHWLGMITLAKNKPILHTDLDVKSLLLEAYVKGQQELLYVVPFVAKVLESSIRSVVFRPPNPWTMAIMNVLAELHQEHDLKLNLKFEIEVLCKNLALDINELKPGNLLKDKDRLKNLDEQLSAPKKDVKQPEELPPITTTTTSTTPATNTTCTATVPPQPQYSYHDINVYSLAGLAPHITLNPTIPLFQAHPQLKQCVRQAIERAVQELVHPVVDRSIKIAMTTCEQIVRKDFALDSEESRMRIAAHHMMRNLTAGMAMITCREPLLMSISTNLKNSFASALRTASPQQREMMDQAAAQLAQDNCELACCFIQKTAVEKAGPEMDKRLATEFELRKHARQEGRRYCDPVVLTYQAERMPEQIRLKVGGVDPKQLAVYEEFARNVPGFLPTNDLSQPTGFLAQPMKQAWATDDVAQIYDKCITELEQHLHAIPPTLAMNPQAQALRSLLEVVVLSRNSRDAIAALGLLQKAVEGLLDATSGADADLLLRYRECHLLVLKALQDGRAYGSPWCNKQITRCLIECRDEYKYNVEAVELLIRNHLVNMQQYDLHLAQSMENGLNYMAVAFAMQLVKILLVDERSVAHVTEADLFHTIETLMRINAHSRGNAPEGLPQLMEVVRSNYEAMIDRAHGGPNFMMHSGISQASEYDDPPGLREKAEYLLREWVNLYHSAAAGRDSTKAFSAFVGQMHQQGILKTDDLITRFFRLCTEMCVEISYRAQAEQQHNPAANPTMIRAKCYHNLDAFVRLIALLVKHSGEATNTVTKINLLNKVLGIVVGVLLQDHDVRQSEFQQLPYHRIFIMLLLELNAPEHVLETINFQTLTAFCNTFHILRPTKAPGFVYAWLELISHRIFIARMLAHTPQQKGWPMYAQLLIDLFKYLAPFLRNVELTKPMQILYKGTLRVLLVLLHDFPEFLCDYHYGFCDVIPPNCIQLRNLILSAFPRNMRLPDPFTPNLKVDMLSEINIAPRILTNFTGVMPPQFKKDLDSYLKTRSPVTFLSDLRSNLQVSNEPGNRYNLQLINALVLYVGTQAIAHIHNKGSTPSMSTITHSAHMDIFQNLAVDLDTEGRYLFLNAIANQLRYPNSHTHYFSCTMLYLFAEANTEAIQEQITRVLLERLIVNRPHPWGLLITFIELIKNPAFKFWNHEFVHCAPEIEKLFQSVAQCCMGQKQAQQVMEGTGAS
# UniProt Q8N684: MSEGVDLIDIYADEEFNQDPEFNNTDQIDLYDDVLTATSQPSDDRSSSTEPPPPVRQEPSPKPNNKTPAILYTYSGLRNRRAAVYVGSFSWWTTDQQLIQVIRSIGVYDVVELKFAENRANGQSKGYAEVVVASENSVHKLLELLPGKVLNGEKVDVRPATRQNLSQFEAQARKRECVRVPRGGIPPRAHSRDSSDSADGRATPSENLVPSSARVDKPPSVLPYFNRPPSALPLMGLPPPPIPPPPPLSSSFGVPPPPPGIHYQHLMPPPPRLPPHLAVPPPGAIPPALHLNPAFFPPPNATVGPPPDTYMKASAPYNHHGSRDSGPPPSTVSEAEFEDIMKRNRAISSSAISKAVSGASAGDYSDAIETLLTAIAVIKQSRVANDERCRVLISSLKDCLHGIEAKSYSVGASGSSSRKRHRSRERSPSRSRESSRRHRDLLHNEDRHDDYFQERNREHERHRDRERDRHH
# UniProt Q6PJW8: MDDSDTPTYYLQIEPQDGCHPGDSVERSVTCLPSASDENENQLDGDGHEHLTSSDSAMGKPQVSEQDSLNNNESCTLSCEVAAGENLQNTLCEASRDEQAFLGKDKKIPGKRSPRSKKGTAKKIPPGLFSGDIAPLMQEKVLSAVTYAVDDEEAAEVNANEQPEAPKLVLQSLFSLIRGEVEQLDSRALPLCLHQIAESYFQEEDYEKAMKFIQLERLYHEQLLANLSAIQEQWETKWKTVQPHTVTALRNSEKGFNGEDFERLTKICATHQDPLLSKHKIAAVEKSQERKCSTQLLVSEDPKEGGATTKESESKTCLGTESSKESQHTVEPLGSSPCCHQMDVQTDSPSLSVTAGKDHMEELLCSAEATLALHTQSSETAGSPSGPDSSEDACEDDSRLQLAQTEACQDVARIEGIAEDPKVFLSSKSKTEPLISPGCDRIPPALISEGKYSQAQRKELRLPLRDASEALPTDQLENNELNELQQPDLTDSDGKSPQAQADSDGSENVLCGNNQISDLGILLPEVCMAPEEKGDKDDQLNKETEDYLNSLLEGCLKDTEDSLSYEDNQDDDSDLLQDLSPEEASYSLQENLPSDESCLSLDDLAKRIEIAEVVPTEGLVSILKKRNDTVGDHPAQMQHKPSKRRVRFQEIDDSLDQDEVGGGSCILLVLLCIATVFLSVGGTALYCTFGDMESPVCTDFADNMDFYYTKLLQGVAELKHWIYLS
# UniProt O75976: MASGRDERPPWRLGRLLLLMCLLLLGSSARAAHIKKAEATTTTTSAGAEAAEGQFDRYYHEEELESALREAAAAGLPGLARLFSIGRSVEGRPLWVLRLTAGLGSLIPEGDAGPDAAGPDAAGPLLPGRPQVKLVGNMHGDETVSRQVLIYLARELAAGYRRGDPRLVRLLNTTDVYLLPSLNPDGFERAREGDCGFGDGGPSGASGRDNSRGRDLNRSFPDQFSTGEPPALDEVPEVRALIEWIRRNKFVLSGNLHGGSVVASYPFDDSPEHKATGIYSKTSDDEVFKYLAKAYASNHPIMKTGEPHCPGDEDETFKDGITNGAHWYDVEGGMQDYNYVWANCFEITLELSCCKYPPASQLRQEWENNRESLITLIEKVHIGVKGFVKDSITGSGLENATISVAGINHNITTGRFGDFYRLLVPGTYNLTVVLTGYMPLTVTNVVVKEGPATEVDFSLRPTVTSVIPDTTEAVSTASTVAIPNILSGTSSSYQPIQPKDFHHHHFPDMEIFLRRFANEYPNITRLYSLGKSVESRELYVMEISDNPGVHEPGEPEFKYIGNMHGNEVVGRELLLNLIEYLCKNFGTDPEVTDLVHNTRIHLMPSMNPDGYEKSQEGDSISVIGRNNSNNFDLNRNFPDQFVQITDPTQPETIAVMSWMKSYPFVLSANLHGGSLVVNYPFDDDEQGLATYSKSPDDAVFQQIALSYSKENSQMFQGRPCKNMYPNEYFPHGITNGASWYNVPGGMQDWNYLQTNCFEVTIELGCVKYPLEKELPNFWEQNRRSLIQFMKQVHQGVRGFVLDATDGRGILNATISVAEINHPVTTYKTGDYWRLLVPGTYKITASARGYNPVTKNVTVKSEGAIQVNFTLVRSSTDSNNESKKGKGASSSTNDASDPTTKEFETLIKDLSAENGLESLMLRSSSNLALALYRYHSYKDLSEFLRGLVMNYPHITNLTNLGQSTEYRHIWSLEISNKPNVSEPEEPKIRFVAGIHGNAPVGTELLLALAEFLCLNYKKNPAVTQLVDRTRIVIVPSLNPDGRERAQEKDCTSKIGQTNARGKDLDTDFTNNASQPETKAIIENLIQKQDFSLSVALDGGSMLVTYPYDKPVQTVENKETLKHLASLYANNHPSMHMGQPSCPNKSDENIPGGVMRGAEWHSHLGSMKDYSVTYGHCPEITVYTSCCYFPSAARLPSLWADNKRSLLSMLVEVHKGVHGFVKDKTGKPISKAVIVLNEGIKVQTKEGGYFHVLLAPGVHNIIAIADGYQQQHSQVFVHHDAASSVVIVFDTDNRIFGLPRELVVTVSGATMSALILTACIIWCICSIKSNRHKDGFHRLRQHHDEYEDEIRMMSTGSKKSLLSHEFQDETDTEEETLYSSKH
# UniProt P14406, whole entry, looked up: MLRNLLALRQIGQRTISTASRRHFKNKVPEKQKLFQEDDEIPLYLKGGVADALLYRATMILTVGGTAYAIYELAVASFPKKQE
# Some of the results follow.
# Compound: CC1=C(C2=C(C=C1)C(=O)C3=CC=CC=C3N2CCCN)C
# Test: log2 fold change, soluble protein after heating vs DMSO (PISA); higher = thermal stabilisation; K562 lysate, 10 uM; active = over 0.2 and 3.5 SD of the protein, either way, in both replicates (recomputed)
# Method in brief: (§1)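 A 30 min treatment with 10 μM compound was applied to crude K562 extract at 1 mg/mL protein in PBS pH 7.4 with 1 mM MgCl2. Heating for 3 min spanned 48°C-58°C, after which aliquots were pooled, adjusted to 0.5% NP-40 at 4°C and spun at 21,000xg for 90 min. TMTpro 16plex LC-MS/MS of the supernatant, with channel sums equalised, gave values recorded as log-two fold change in thermal stability against solvent controls, from duplicates.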
row,Target,log2 fold change
1,CNOT10 (UniProt Q9H9A5),inactive: -0.025
2,COPA isoform 2 (UniProt P53621),inactive: -0.011
3,COPS3 (UniProt Q9UNS2),inactive: 0.005
4,CNOT6 (UniProt Q9ULM6),inactive: 0.019
5,CNOT7 (UniProt Q9UIV1),inactive: 0.037
6,CNOT3 (UniProt O75175),inactive: -0.018
7,COX5A (UniProt P20674),inactive: 0.024
8,COPRS (UniProt Q9NQ92),inactive: 0.016
9,COQ7 (UniProt Q99807),inactive: -0.064
10,COTL1 (UniProt Q14019),inactive: 0.02
11,COX11 (UniProt Q9Y6N1),inactive: 0.027
12,CRADD (UniProt P78560),inactive: -0.003
13,COMMD1 (UniProt Q8N668),inactive: -0.025
14,CNOT1 (UniProt A5YKK6),inactive: 0.002
15,CPSF7 isoform 3 (UniProt Q8N684),inactive: 0.027
16,COMTD1 (UniProt Q86VU5),inactive: 0.002
17,COX18 (UniProt Q8N8Q8),inactive: 0.024
18,COX19 (UniProt Q49B96),inactive: -0.035
19,COPZ1 isoform 4 (UniProt P61923),inactive: 0.037

row,Target,log2 fold change
1,CPSF1 (UniProt Q10570),inactive: -0.005
2,CNPY2 (UniProt Q9Y2B0),inactive: 0.006
3,CNST (UniProt Q6PJW8),inactive: -0.01
4,COA1 (UniProt Q9GZY4),inactive: 0.04
5,COPS7B (UniProt Q9H9Q2),inactive: -0.035
6,COX4I1 (UniProt P13073),inactive: -0.014
7,CPPED1 (UniProt Q9BRF8),inactive: -0.023
8,COPS4 (UniProt Q9BT78),inactive: 0.001
9,CPSF4 (UniProt O95639),inactive: 0.004
10,COMMD10 (UniProt Q9Y6G5),inactive: 0.052
11,CPD (UniProt O75976),inactive: -0.047
12,CORO1C isoform 3 (UniProt Q9ULV4),inactive: 0.016
13,CNOT4 isoform 6 (UniProt O95628),inactive: 0.037
14,COMMD9 (UniProt Q9P000),inactive: -0.035
15,COL18A1 (UniProt P39060),inactive: 0.07
16,CPEB4 (UniProt Q17RY0),inactive: -0.065
17,COX15 (UniProt Q7KZN9),inactive: -0.01
18,COX6A1 (UniProt P12074),inactive: -0.063

# Compound: CC1=C(C=C(C=C1)NC(=O)C2=CC(=CC=C2)C(C)(C)C#N)NC3=CC4=C(C=C3)N=CN(C4=O)C
# Test: as above
# Method in brief: as §1
row,Target,log2 fold change
1,CNOT10 (UniProt Q9H9A5),inactive: 0.011
2,COPA isoform 2 (UniProt P53621),inactive: 0.004
3,COPS3 (UniProt Q9UNS2),inactive: 0.058
4,COX7A2 (UniProt P14406),inactive: 0.087
5,CNOT6 (UniProt Q9ULM6),inactive: 0.02
6,CNOT7 (UniProt Q9UIV1),inactive: -0.031
7,CNOT3 (UniProt O75175),inactive: -0.072
8,COX5A (UniProt P20674),inactive: 0.032
9,COPRS (UniProt Q9NQ92),inactive: -0.005
10,COQ7 (UniProt Q99807),inactive: 0.019
11,COTL1 (UniProt Q14019),inactive: -0.019
12,COX11 (UniProt Q9Y6N1),inactive: 0.035
13,CRADD (UniProt P78560),inactive: -0.009
14,COMMD1 (UniProt Q8N668),inactive: -0.018
15,CNOT1 (UniProt A5YKK6),inactive: 0.003
16,CPSF7 isoform 3 (UniProt Q8N684),inactive: -0.215
17,COMTD1 (UniProt Q86VU5),inactive: 0.057
18,COX18 (UniProt Q8N8Q8),inactive: 0.064
19,COX19 (UniProt Q49B96),inactive: -0.025

row,Target,log2 fold change
1,COPZ1 isoform 4 (UniProt P61923),inactive: 0.03
2,CPSF1 (UniProt Q10570),inactive: -0.062
3,CNPY2 (UniProt Q9Y2B0),inactive: -0.036
4,CNST (UniProt Q6PJW8),inactive: -0.035
5,COA1 (UniProt Q9GZY4),inactive: -0.018
6,COPS7B (UniProt Q9H9Q2),inactive: -0.007
7,CNTN4 (UniProt Q8IWV2),inactive: 0.312
8,COX4I1 (UniProt P13073),inactive: 0
9,CPPED1 (UniProt Q9BRF8),inactive: 0.016
10,COPS4 (UniProt Q9BT78),inactive: -0.011
11,CPSF4 (UniProt O95639),inactive: -0.108
12,COMMD10 (UniProt Q9Y6G5),inactive: -0.029
13,CPD (UniProt O75976),inactive: -0.007
14,CORO1C isoform 3 (UniProt Q9ULV4),inactive: 0.008
15,CNOT4 isoform 6 (UniProt O95628),active: -0.281
16,COMMD9 (UniProt Q9P000),inactive: 0.065
17,COL18A1 (UniProt P39060),inactive: -0.051
18,COX15 (UniProt Q7KZN9),inactive: 0.045
19,COX6A1 (UniProt P12074),inactive: 0.05
